# Reference: PMC12040169 (PLOS Biology, 2025)
# The other results are listed elsewhere or left out.
# Test system: T1, CTL2-GFP (C. trachomatis L2/434/Bu, GFP-expressing)
# T1 construct: L2/434/Bu, GFP-expressing
# Design: species or system HeLa; Intracellular C. trachomatis growth in HeLa cells, bulk GFP fluorescence relative to DMSO
# Details: bulk GFP, single well; 28.5 h, 10 µM; inhibitor
row,SMILES,% of control remaining [%]
1,CCOc1ccc(N2C(=O)CC(N3CCN(c4ccc(C(=O)c5ccncc5)cc4)CC3)C2=O)cc1 (stereo not shown) [CBK269124],125.604
2,Cc1nn(C)c(C)c1CN(C)C(=O)c1cc(-c2ccc(F)cc2)on1 [CBK281587],119.79
3,O=C(NCC(O)c1ccccc1)Nc1ccccc1 (stereo not shown) [CBK057227],94.5447
4,CCN(Cc1ccccc1)[C@@H](CO)Cc1ccc(OC)cc1 [CBK073856T],133.679
5,Cc1cccn2c(=O)c(/C=C3\SC(=S)N(Cc4ccccc4)C3=O)c(NCCCn3ccnc3)nc12 [CBK263833],126.119
6,COc1ccc(OC)c(Nc2nc(NCC3CCCO3)c3ccccc3n2)c1 (stereo not shown) [CBK268403C],37.445
7,Cc1ccc(S(=O)(=O)NC(C)(C)CSc2ccccc2)cc1 [CBK268354],109.175
8,C#CCN1C(=O)C2(OCCO2)c2cccc(C)c21 [CBK019069],133.542
9,COc1ccc2sc(N(Cc3cccnc3)C(=O)CCc3ccccc3)nc2c1 [CBK294423],141.672
10,COc1cc(NS(=O)(=O)c2ccc(NC(=O)c3c(C)noc3C)cc2)nc(OC)n1 [CBK268151],122.184
11,Cn1cc(CC(=O)Nc2ccc(N3CCNCC3)nc2)c2ccccc21 [CBK028275T],174.684
12,c1ccc2c(c1)[nH]c1nc(SCCN3CCCCC3)nnc12 [CBK263249],113.149
13,OCCN(Cc1ccccc1)Cc1ccc(Cl)c(Cl)c1 [CBK261908],85.1418
14,OC1CCC(Nc2cncc(-c3cccc(F)c3)n2)CC1 (stereo not shown) [CBK065449],137.12
15,O=C(O)CSc1nc2c(-c3ccco3)c3c(nc2o1)CCCC3 [CBK269266],115.731
16,CCNC(=O)N(C)c1c(CC)nc2c(OCc3ccc(S(C)(=O)=O)cc3)cccn12 [CBK147797],118.033
17,O=C(NCC1CCOC1)c1ccc(-c2ccccc2CO)cc1 (stereo not shown) [CBK306616],76.6767
18,CC(C)c1ccsc1C(=O)N1CCC2(C1)NC(=O)NC2=O (stereo not shown) [CBK305188],146.534
19,Cc1ccccc1Cc1cccc(C2CCN(S(=O)(=O)c3cn[nH]c3)CC2)n1 [CBK286125],120.793
20,COC(=O)c1c(NC(=S)Nc2cnccn2)sc2c1CCC2 [CBK266935],150.086
21,O=C(CSc1nnc(-c2ccccc2Cl)[nH]1)c1ccc(O)c(O)c1 [CBK267693],138.983
22,CCOc1ccccc1C(=O)Nc1ccc(O)cc1 [CBK099037],181.509

# Part of the list above, set out differently.
row	SMILES	% of control remaining [%]
6	COc1ccc(OC)c(Nc2nc(NCC3CCCO3)c3ccccc3n2)c1 (stereo not shown) [CBK268403C]	37.445
7	Cc1ccc(S(=O)(=O)NC(C)(C)CSc2ccccc2)cc1 [CBK268354]	109.175
